Data as given in publication doi:10.1101/2021.05.23.445298.
Read-outs that look alike come from different tables or passages of the source. No constants are given. Whether binding was seen depends on the method and setting. Some entries that bind do so weakly or less than the wild type. Blank lines part the entries; values can stand above or below the molecule they belong to.

Amino acid sequences for entries named in this document (tags omitted). Residues count along the entry.
UniProt P21513, whole entry: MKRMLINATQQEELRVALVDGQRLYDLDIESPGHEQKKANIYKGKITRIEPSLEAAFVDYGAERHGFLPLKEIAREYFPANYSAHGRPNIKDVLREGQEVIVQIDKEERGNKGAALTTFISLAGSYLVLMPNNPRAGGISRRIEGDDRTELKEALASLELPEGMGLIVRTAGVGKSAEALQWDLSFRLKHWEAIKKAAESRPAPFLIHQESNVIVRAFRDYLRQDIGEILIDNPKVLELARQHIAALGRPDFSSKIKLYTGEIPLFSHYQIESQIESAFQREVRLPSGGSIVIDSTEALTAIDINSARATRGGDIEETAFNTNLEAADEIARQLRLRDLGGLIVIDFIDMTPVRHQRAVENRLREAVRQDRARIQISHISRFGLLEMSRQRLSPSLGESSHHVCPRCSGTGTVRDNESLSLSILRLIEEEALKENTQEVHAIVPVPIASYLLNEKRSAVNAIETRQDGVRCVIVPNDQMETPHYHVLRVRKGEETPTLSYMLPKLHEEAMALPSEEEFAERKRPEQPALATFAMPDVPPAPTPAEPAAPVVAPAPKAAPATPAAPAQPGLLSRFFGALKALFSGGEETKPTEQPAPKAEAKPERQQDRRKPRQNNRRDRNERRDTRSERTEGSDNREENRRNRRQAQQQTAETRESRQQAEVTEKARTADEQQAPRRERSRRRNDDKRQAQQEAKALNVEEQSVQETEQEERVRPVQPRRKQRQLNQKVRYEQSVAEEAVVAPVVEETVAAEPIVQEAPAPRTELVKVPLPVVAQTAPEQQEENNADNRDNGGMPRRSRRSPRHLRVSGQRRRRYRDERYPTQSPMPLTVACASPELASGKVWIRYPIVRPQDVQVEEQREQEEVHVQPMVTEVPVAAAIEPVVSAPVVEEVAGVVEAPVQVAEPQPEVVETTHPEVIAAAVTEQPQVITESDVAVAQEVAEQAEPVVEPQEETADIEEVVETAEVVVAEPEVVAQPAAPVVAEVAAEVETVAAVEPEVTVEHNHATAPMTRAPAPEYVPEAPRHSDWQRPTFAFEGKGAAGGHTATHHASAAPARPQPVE
UniProt P21513, 1-850: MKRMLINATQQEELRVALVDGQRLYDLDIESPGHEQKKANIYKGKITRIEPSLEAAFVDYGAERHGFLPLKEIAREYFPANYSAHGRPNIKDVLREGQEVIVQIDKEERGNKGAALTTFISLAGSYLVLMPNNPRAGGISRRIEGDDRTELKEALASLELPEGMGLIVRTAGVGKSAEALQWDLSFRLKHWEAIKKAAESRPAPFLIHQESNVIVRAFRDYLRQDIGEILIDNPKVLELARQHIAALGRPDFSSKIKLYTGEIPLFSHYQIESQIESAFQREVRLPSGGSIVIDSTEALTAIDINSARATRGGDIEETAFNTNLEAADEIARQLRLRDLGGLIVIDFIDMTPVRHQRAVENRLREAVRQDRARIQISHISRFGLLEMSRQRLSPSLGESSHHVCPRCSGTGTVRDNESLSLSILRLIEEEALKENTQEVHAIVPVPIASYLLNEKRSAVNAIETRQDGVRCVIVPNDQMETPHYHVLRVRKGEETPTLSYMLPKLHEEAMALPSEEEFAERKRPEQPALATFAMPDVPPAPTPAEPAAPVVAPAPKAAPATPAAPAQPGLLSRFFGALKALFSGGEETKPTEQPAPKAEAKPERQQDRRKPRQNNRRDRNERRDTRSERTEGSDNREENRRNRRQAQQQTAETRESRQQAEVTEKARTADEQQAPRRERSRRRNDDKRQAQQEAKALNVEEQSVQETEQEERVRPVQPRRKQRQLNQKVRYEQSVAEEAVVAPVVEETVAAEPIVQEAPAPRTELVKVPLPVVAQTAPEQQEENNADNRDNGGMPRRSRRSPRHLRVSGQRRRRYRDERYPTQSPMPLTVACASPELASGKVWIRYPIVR
UniProt P0A6P9, whole entry: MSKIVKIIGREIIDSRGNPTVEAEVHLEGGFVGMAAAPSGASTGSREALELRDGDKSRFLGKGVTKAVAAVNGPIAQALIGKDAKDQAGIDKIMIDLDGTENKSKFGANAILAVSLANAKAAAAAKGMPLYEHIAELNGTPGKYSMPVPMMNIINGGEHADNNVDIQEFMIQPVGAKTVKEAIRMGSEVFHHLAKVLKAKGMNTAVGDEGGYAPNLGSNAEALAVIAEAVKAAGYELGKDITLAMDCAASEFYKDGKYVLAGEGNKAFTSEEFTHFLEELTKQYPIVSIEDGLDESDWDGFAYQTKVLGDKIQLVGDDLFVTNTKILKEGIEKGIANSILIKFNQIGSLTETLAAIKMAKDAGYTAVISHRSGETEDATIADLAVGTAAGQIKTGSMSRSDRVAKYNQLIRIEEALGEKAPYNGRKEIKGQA

Assays:
Test in all cases: co-purification
[1] = molecular target: RNase E 1-850 (Escherichia coli) (UniProt P21513)
[2] = molecular target: RNase E 1-1061, chromosomally strep-tagged (Escherichia coli (endogenous in NCM3416)) (UniProt P21513)
[3] = molecular target: RNase E 1-1061, chromosomally strep-tagged (Escherichia coli (endogenous in NCM3416)) (UniProt P21513); remark: listed apart in the source

binding [1]: binds
Molecule: enolase (full-length, recombinant) (from UniProt P0A6P9 1-432) (enzyme)

binding [2]: binds
Molecule: enolase (endogenous, full degradosome) (from UniProt P0A6P9 1-432) (enzyme)

binding [3]: binds
B1: PNPase (endogenous, full degradosome) (enzyme, UniProt P05055 1-711)
chain: MLNPIVRKFQYGQHTVTLETGMMARQATAAVMVSMDDTAVFVTVVGQKKAKPGQDFFPLTVNYQERTYAAGRIPGSFFRREGRPSEGETLIARLIDRPIRPLFPEGFVNEVQVIATVVSVNPQVNPDIVAMIGASAALSLSGIPFNGPIGAARVGYINDQYVLNPTQDELKESKLDLVVAGTEAAVLMVESEAQLLSEDQMLGAVVFGHEQQQVVIQNINELVKEAGKPRWDWQPEPVNEALNARVAALAEARLSDAYRITDKQERYAQVDVIKSETIATLLAEDETLDENELGEILHAIEKNVVRSRVLAGEPRIDGREKDMIRGLDVRTGVLPRTHGSALFTRGETQALVTATLGTARDAQVLDELMGERTDTFLFHYNFPPYSVGETGMVGSPKRREIGHGRLAKRGVLAVMPDMDKFPYTVRVVSEITESNGSSSMASVCGASLALMDAGVPIKAAVAGIAMGLVKEGDNYVVLSDILGDEDHLGDMDFKVAGSRDGISALQMDIKIEGITKEIMQVALNQAKGARLHILGVMEQAINAPRGDISEFAPRIHTIKINPDKIKDVIGKGGSVIRALTEETGTTIEIEDDGTVKIAATDGEKAKHAIRRIEEITAEIEVGRVYTGKVTRIVDFGAFVAIGGGKEGLVHISQIADKRVEKVTDYLQMGQEVPVKVLEVDRQGRIRLSIKEATEQSQPAAAPEAPAAEQGE
